No constants are given. Whether binding was seen depends on the method and setting. A result given as binding can be weak or reduced; the word gives no strength. Sequences can lack the tags named with a protein.
Target: SsgA, bacterial two-hybrid (BACTH) fusion
Experiment: two-hybrid; bacterial two-hybrid (BACTH) in E. coli BTH101

B1: SsgB, wild type, bacterial two-hybrid (BACTH) fusion (protein, UniProt Q9L268 1-137)
chain: MNTTVSCELHLRLVVSSESSLPVPAGLRYDTADPYAVHATFHTGAEETVEWVFARDLLAEGLHRPTGTGDVRVWPSRSHGQGVVCIALSSPEGEALLEAPARALESFLKRTDAAVPPGTEHRHFDLDQELSHILAES
**Q.** How did the binding turn out when B1 was run?
**A.** The binding was “binds”.
